The source of these data is article PMC11558545, “Mechanistic Insights into the Function of 14-3-3 Proteins as Negative Regulators of Brassinosteroid Signaling in Arabidopsis” (Plant and Cell Physiology, 2024).

Protein sequences, listed by entry. Tags and fused reporters are not part of them. Residues count along the entry.
UniProt Q944A7, residues 55-512: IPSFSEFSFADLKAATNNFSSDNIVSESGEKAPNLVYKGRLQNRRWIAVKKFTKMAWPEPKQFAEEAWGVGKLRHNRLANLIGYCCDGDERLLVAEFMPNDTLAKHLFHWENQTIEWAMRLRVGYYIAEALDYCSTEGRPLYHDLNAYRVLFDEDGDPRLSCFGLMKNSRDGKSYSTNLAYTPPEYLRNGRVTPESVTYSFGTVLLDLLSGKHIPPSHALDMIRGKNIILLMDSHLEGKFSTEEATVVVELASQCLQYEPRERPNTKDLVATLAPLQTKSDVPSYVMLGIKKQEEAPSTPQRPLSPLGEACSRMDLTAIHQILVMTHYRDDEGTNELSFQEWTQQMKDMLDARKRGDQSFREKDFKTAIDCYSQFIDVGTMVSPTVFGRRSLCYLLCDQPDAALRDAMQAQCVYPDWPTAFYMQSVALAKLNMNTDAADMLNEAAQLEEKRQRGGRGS
UniProt Q9LR78: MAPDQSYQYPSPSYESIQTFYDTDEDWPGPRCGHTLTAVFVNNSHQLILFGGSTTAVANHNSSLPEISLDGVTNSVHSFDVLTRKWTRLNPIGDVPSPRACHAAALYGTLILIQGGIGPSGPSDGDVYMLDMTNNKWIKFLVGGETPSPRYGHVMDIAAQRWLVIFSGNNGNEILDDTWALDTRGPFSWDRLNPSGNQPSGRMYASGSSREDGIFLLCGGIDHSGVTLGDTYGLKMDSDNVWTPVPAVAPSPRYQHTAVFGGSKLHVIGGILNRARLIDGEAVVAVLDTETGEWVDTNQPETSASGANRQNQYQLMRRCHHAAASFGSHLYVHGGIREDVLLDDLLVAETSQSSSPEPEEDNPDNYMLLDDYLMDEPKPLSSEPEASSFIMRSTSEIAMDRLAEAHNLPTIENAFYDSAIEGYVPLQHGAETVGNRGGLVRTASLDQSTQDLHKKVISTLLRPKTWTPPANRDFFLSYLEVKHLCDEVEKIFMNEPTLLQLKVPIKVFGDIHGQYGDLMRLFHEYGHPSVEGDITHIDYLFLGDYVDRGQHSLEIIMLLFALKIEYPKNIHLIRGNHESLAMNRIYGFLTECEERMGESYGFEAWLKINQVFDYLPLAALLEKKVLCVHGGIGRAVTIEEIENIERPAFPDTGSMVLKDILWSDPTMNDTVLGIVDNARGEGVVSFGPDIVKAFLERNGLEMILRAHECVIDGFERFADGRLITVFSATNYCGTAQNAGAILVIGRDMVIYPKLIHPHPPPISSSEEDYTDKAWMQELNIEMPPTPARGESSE

For the experiment, the target named is T1, Arabidopsis 14-3-3 isoform kappa (At14-3-3-κ^1−248) (Arabidopsis thaliana) (UniProt P48348).
T1 sequence: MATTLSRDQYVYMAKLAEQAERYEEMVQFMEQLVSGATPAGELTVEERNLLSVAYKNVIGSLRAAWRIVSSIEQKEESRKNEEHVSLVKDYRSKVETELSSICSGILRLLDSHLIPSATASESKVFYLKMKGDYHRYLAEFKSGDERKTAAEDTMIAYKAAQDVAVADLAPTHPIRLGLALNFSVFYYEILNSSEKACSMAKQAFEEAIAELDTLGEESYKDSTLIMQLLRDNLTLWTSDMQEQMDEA
In words: ITC; 14-3-3κ versus purified globular domains of BR signaling components (BRI1, BAK1 and BSK1 after auto-/transphosphorylation); Nano ITC, 25°C, 25 mM Hepes pH 7.0, 50 mM KCl; both purified.

Results are given in words; binding and its absence hold for the method and conditions named.

As to “BSK1 (residues 55–512), after incubation with BRI1^814−1196 (from UniProt Q944A7 55-512) (domain or fragment)”, the binding result was “no binding”. As for “full-length BSU1 (residues 1–793) (from UniProt Q9LR78 1-793) (enzyme)”, the entry is “no binding”.
